# Assay results published in article PMC12040169 (PLOS Biology, 2025).
# This is one part of the list.
# Test system: T1, CTL2-GFP (C. trachomatis L2/434/Bu, GFP-expressing)
# T1 construct: L2/434/Bu, GFP-expressing
# Parameters: species or system HeLa; Intracellular C. trachomatis growth in HeLa cells, bulk GFP fluorescence relative to DMSO
# Details: bulk GFP, single well; 28.5 h, 10 µM; inhibitor
row,Structure (SMILES),% of control remaining [%]
1,COc1ccc(NC(=O)Nc2nn(Cc3c(F)cccc3Cl)cc2Br)c(OC)c1 [CBK266834],147.549
2,CN1CCN(C(=O)Nc2cccc(-c3nc(-c4ccc(C#N)cc4)cnc3N)c2)CC1 [CBK116251],100
3,CCc1c(C)nc2ccccc2c1SCCC(=O)N(C)C [CBK149718T],127.625
4,Cc1nc(C(=O)NCC2CN3CCCN2CC3)ccc1C(=O)O (centres unmarked) [CBK304242],142.066
5,CCN(CC)CCN(CCc1ccc(OC)c(OC)c1)C(=O)Nc1ccc(Cl)cc1 [CBK160510],93.3495
6,CCCSc1ncc(Cl)c(C(=O)Nc2ccc(C(=O)OC)cc2)n1 [CBK268824],99.3677
7,Cc1cc(C(=O)N2CCn3cc(C(F)(F)F)nc3C2)on1 [CBK282430],84.8845
8,CCOC(=O)C(C)N1C(=O)S/C(=C/c2cc(Cl)c(OCC(=O)O)c(Br)c2)C1=O (centres unmarked) [CBK265163],100
9,Cc1ncccc1COC(=O)NCCc1ccccn1 [CBK200137],167.122
10,Cc1ccc(OCC(=O)NCCCN(C)C)cc1 [CBK263595],93.929
11,C=CCOc1ccc(CNc2cccc(C(=O)O)c2)cc1OC [CBK074468],126.012
12,O=c1cc(C(F)F)c2cn(C3CCCC3)nc2[nH]1 [CBK288016],106.508
13,O=C(c1n[nH]c2c1CCC2)N1CCC(c2ccccc2)C1 (centres unmarked) [CBK281851],108.113
14,CC1CCCC(C)N1CC(=O)Nc1ccccc1Oc1ccccc1 (centres unmarked) [CBK015824C],75.3793
15,O=C(c1cc(-c2ccncc2)nc2ccc(Cl)cc12)N1CCN(CCc2ccccc2)CC1 [CBK267719],122.313
16,O=C(O)c1ccc(/C=N/Nc2nc(N3CCOCC3)nc(N3CCOCC3)n2)cc1 [CBK262433],131.915
17,O=C(c1ccccc1F)N1C[C@H](c2ccsc2)[C@H]2CN(Cc3ccccc3F)CC[C@H]21 [CBK285656],57.4292
18,c1coc(CNc2nccnc2-c2cccs2)c1 [CBK036618],125.591
19,Cn1cc(CNCC2CCN(c3ccccc3)C2)c(-c2cccnc2)n1 (centres unmarked) [CBK304155],125.825
20,CC(=O)N1CCC2(CCCC[C@H]3CN(C(=O)C(C)C)CC[C@@H]3NC(=O)CNC2=O)CC1 [CBK292121],149.72
21,Cc1ccc(OC(C)C(=O)Nc2ccc(S(=O)(=O)Nc3cc(C)on3)cc2)cc1 (centres unmarked) [CBK268757],72.2463
22,COCCNc1nc2c(c(N3CCCCCC3)n1)CCNCC2 [CBK306724],8.642
23,COc1cc(NC(=O)c2ccc3c(c2)C(=O)N(c2ccccc2OC)C3=O)c(C(=O)O)cc1OC [CBK262787],105.267
24,O=C(Cn1nc(N2CCSCC2)ccc1=O)Nc1ccccc1 [CBK307623],97.8679
25,COC(=O)c1c(NC(=S)N2CCN(Cc3c(C)nn(C)c3C)CC2)sc2c1CCC(C)C2 (centres unmarked) [CBK267103],133.949
26,Cc1nn(C)c(C)c1OCC(=O)Nc1nc2c(cc1C#N)CCC2 [CBK306371],136.413
27,NC(=O)CN1CC2(CCN(CCCCC3NC(=O)NC3=O)CC2)c2ccccc21 (centres unmarked) [CBK126799],136.872

# Reprinted at random: 2 records from the list, in no set order.
row,Structure (SMILES),% of control remaining [%]
21,Cc1ccc(OC(C)C(=O)Nc2ccc(S(=O)(=O)Nc3cc(C)on3)cc2)cc1 (centres unmarked) [CBK268757],72.2463
8,CCOC(=O)C(C)N1C(=O)S/C(=C/c2cc(Cl)c(OCC(=O)O)c(Br)c2)C1=O (centres unmarked) [CBK265163],100

# Next records

row,Structure (SMILES),% of control remaining [%]
1,O=C(O)c1cccc(NS(=O)(=O)c2cccnc2)c1 [CBK155700],94.5877
2,CC(=O)Nc1ccc(CNC(=O)c2ccc[nH]2)cc1 [CBK304538],131.489
3,COc1cc(CN2CCN(C(=O)c3cccc(F)c3)CC2)cc(OC)c1O [CBK074633],84.9002
4,CCN1CCOC(CNCc2ccc(OCC(N)=O)cc2)C1 (centres unmarked) [CBK305108],91.7765
5,Cc1onc(-c2ccccc2Cl)c1C(=O)Nc1ccc(S(=O)(=O)N2CCC(C)CC2)cc1 [CBK265463],77.1919
6,Cc1csc(NC(=O)CSc2ccc3nnc(-c4ccccc4)n3n2)n1 [CBK287517],119.967
7,CC(C)C(=O)Nc1cccc(NC(=O)COc2ccc(Br)cc2)c1 [CBK265211],115.081
8,O=S(=O)(c1ccc(F)cc1)N1CCCC1c1cccc(Cc2cccc(F)c2)n1 (centres unmarked) [CBK286209],114.618
9,C/C(=N\NC(=O)c1cccc(Cl)c1)c1ccccc1O [CBK261665],59.7872
10,COc1ccc2c(c1)CCc1sc(NS(=O)(=O)c3cccc(Cl)c3C)nc1-2 [CBK200033],82.4095
11,Nc1nc(-c2ccccc2)c(C(=O)Nc2ccccc2)s1 [CBK058068],42.2566
12,Cc1cc(C)c2c(c1)-c1c(ssc1=S)C(C)(C)N2C(=O)CSc1nncn1C [CBK263035],86.1778
13,COc1ccc(-n2nc(C)c3onc(C)c3c2=O)cc1 [CBK000853],104.308
14,S=C(NCc1ccco1)Nc1nn(Cc2ccc(Cl)cc2Cl)cc1Cl [CBK267021],157.34
15,CC(C)c1cc(C(=O)N(Cc2ccccn2)CC2CCCO2)on1 (centres unmarked) [CBK306579],143.243
16,COc1ccc(-c2nc(CCN)n3ccccc23)cc1 [CBK035583],113.332
17,CCNC(=O)N[C@H]1[C@H](O)[C@@H](N(CC)CC)[C@@H]2OC[C@H]1O2 [CBK288816],121.045
18,Fc1ccc2[nH]c3c(c2c1)CCN1C(c2ccncc2)N2CCC31CC2 (centres unmarked) [CBK284437],136.09
19,Nc1cc2ccccc2c(-c2ccc3c(c2)OCCCO3)n1 [CBK085722],110.719
20,CCOC(=O)N1CCC(NC(=O)N2CCCC(CO)C2)CC1 (centres unmarked) [CBK156345],118.771
21,COc1ccc2ncc3c(c2c1)NCCNC3=O [CBK291168],161.201
22,COc1ccccc1-c1cnccc1-n1ccnc1 [CBK177153],134.095
23,CC(=O)N1CC[C@H](c2nc3cccc(C(N)=O)c3[nH]2)C1 [CBK289415],156.952
24,Nc1ncncc1-c1noc([C@@H]2CCCN2c2ncccn2)n1 [CBK288901],108.799
25,O=[N+]([O-])c1ccc(/C=C/c2nn3c(Cn4cnc5ccccc54)nnc3s2)cc1 [CBK268273],119.113
26,COCC1CCCN(Cc2cn(C)nc2C(C)(C)C)C1 (centres unmarked) [CBK304818],97.7336
27,O=[N+]([O-])c1ccc(CN2CCN(Cc3c[nH]c4ccccc34)CC2)cc1 [CBK218620],100

row,Structure (SMILES),% of control remaining [%]
1,O=C(NCc1cccnc1)c1ncoc1-c1cccs1 [CBK283974],165.132
2,CC1CCCCN1S(=O)(=O)c1ccc(-n2ncc(Cl)c(Cl)c2=O)cc1 (centres unmarked) [CBK305035],66.003
3,CO[C@@]12CC[C@H](OCC(=O)O)C[C@@H]1N(Cc1c(C)cnn1C)CC2 [CBK306638],120.618
4,COc1ccc(CNC(=O)c2cc(S(=O)(=O)N3CCCCC3)cs2)cc1 [CBK307590],115.543
5,CCCN(C(=O)CCn1c(=O)oc2cc(Cl)ccc21)C1CCNC1 (centres unmarked) [CBK304311C],98.0651
6,CNC(=O)CSc1nccc(C(F)(F)F)n1 [CBK107759],93.8992
7,COc1ccc(C(C)C)cc1-c1cnc(N)c(N2CCOCC2)n1 [CBK063384],146.802
8,CC(=O)N1c2ccccc2C(C)(c2ccc(Br)cc2)CC1(C)C (centres unmarked) [CBK026461],18.3713
9,O=c1c2cn[nH]c2nc(SCc2ccc3c(c2)OCCO3)n1-c1ccccc1 [CBK266593],126.555
10,OC1(Cn2cnc3ccccc32)CCN(Cc2ccc(F)cc2)CC1 [CBK284661],133.651
11,CN(C)C(=S)Oc1ccc2[nH]c3c(c2c1)CCNC31CCN(CCOc2ccccc2)C1 (centres unmarked) [CBK105748],116.757
12,COc1ccccc1NC(=O)N1C[C@@H]2C[C@H](C1)c1c(-c3cccs3)ccc(=O)n1C2 [CBK289191],79.6173
13,O=c1[nH]nc2c(Sc3cccc(F)c3)nccn12 [CBK288508],87.987
14,CCn1cnnc1SCC(=O)Nc1ccc(CN2CCOCC2)cc1 [CBK305072],127.894
15,Cc1cccc(Nc2nc(N)nc(CSc3nccn3C)n2)c1 [CBK266105],105.617
16,CC(Cc1ccccn1)NC(=O)c1cc(-c2ccccc2F)no1 (centres unmarked) [CBK281421],123.875
17,CSc1nc2ccc(S(=O)(=O)N3CCCC3)cc2s1 [CBK268400],105.671
18,CCCCc1cc(=O)oc2cc(OCC(=O)O)ccc12 [CBK264205],116.873
19,CN(C)CCCNc1oc(/C=C/c2cccs2)nc1C#N [CBK269317],153.917
20,Cc1cccc(OCC2CCCN(C(=O)NCCc3cnn(C)c3)C2)c1 (centres unmarked) [CBK307358],131.386
21,CC(=O)NC[C@H]1CN(c2ccc3c(c2)CCSC3)C(=O)O1 [CBK018505],7.8756
22,COc1cccc(CN2CCN(CCc3ccccc3)CC2)c1 [CBK126454],108.792
23,CCCc1ccc(S(=O)(=O)Nc2ccc(C(=O)N(CC)CC)cc2)cc1 [CBK034403],90.9018
24,CS(=O)(=O)N1CCc2c([nH]c3ccccc23)C12CCN(Cc1ccccc1)C2 (centres unmarked) [CBK059460],109.205
25,Cc1ccc(S(=O)(=O)NC2c3cccc4cccc(c34)C2Sc2nnc(N)s2)cc1 (centres unmarked) [CBK265835],147.371
26,O=C(CCNc1n[nH]c(=O)[nH]c1=O)N/N=C\c1ccccc1F [CBK263093],100

# Among those listed so far, 2 contain a nitro group on carbon.
row,Structure (SMILES),% of control remaining [%]
25,O=[N+]([O-])c1ccc(/C=C/c2nn3c(Cn4cnc5ccccc54)nnc3s2)cc1 [CBK268273],119.113
27,O=[N+]([O-])c1ccc(CN2CCN(Cc3c[nH]c4ccccc34)CC2)cc1 [CBK218620],100
